Laboratory results as given in US20260258156A1.
Changes are numbered by the printed parent chain. No constants are given. Whether binding was seen depends on the method and setting. Binding can be weak; no strength is given. Values belong to the binder of their own block, whether it stands above or below them.

By UniProt entry, the sequences of proteins in these tests, tags left out. Where a name states a change or a piece, a line headed by the entry shows the natural chain unless it says otherwise.
UniProt Q9Y337: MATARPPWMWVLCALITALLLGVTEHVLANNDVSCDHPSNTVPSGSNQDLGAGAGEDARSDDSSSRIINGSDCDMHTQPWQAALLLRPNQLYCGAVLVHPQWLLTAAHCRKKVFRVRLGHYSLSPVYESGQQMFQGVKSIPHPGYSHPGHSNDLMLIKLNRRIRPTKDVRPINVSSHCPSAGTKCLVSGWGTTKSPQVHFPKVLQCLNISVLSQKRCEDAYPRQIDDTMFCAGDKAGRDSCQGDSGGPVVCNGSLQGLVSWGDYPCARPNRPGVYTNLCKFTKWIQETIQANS

Legend:
[1] = molecular target: human KLK5, active form (human) (UniProt Q9Y337); experiment: SPR sandwich binning, KLK5/7-Dual-Ab4 coupled to CM5 chip, huKLK5 flowed over
[2] = molecular target: human KLK5, active form (human) (UniProt Q9Y337); experiment: SPR (Biacore), antibody captured on Protein A chip
[3] = molecular target: human KLK5, active form (human) (UniProt Q9Y337); experiment: SPR, antibody captured on Protein A chip, 20 nM huKLK5 without inhibitor
[4] = molecular target: human KLK5, active form (human) (UniProt Q9Y337); experiment: SPR, antibody coupled to CM5 chip
[5] = molecular target: human KLK5, active form (human) (UniProt Q9Y337); experiment: SPR (Biacore), antibody captured on Protein A chip, KLK at 0.156-40 nM
[6] = molecular target: human KLK5, active form (human) (UniProt Q9Y337); experiment: SPR relative response curves

B2: KLK5/KLK7-Dual-Ab2 (antibody, V domains shown)
VH: QLQLQESGPGLVKPSETLSLTCTVSGGSISSDDYYWVWIRQPPGKGLEWIGSIDYFASTYYNPSLKSRVTISVDTSKNQFSLKLSSVTAADTAVYYCARGRPLGYGARHDYYGMDVWGQGTTVTVSS
VL: DIQMTQSPSSLSASVGDRVTITCRASQSISSYLNWYQQKPGKAPKLLIYSASSLQSGVPSRFSGSGSGTDFTLTISSLQPEDFATYYCQQSPYFPPLTFGGGTKVEIK
binding [2]: binds
binding [3]: binds

B3: KLK5/KLK7-Dual-Ab1 (antibody, V domains shown)
VH: B2 VH with D32S, V37G, D54Y, F56S, A57G, D110Y
VL: B2 VL with Y93P
binding [2]: binds

Now from value to binder:

binding [1]: binds
binding [2]: binds
binding [3]: binds
binding [4]: binds
binding [5]: binds
binding [6]: binds
B1: KLK5/KLK7-Dual-Ab4 (antibody, V domains shown)
VH: B2 VH with D32L, F56S, A57G, S58D, D110Y, G113A
VL: B2 VL

binding [2]: binds
B4: KLK5/KLK7-Dual-Ab3 (antibody, V domains shown)
VH: B2 VH with F56Y, N62S, R108K, D110Y
VL: B2 VL
